Laboratory results from article PMC3483219.
Results are given in words; binding and its absence hold for the method and conditions named. In cells and extracts the contact can be indirect.

What was measured:
GST-rab4 = experiment: pull-down; GST-rab4 and GST-rab5 on GSH beads, loaded with GMP-PNP or GDP, incubated with rescued mocha cell lysate; blots for δ-adaptin and rabaptin-5α; only the target purified
GST-rab5 = experiment: as above

binding (GST-rab4): no binding
binding (GST-rab5): no binding
B1: δ-adaptin (rescued mocha fibroblasts) (protein, UniProt O14617 1-1153)
chain: MALKMVKGSIDRMFDKNLQDLVRGIRNHKEDEAKYISQCIDEIKQELKQDNIAVKANAVCKLTYLQMLGYDISWAAFNIIEVMSASKFTFKRIGYLAASQSFHEGTDVIMLTTNQIRKDLSSPSQYDTGVALTGLSCFVTPDLARDLANDIMTLMSHTKPYIRKKAVLIMYKVFLKYPESLRPAFPRLKEKLEDPDPGVQSAAVNVICELARRNPKNYLSLAPLFFKLMTSSTNNWVLIKIIKLFGALTPLEPRLGKKLIEPLTNLIHSTSAMSLLYECVNTVIAVLISLSSGMPNHSASIQLCVQKLRILIEDSDQNLKYLGLLAMSKILKTHPKSVQSHKDLILQCLDDKDESIRLRALDLLYGMVSKKNLMEIVKKLMTHVDKAEGTTYRDELLTKIIDICSQSNYQYITNFEWYISILVELTRLEGTRHGHLIAAQMLDVAIRVKAIRKFAVSQMSALLDSAHLLASSTQRNGICEVLYAAAWICGEFSEHLQEPHHTLEAMLRPRVTTLPGHIQAVYVQNVVKLYASILQQKEQAGEAEGAQAVTQLMVDRLPQFVQSADLEVQERASCILQLVKHIQKLQAKDVPVAEEVSALFAGELNPVAPKAQKKVPVPEGLDLDAWINEPLSDSESEDERPRAVFHEEEQRRPKHRPSEADEEELARRREARKQEQANNPFYIKSSPSPQKRYQDTPGVEHIPVVQIDLSVPLKVPGLPMSDQYVKLEEERRHRQKLEKDKRRKKRKEKEKKGKRRHSSLPTESDEDIAPAQQVDIVTEEMPENALPSDEDDKDPNDPYRALDIDLDKPLADSEKLPIQKHRNTETSKSPEKDVPMVEKKSKKPKKKEKKHKEKERDKEKKKEKEKKKSPKPKKKKHRKEKEERTKGKKKSKKQPPGSEEAAGEPVQNGAPEEEQLPPESSYSLLAENSYVKMTCDIRGSLQEDSQVTVAIVLENRSSSILKGMELSVLDSLNARMARPQGSSVHDGVPVPFQLPPGVSNEAQYVFTIQSIVMAQKLKGTLSFIAKNDEGATHEKLDFRLHFSCSSYLITTPCYSDAFAKLLESGDLSMSSIKVDGIRMSFQNLLAKICFHHHFSVVERVDSCASMYSRSIQGHHVCLLVKKGENSVSVDGKCSDSTLLSNLLEEMKATLAKC
